# From patent US20250381153A1, “CURCUMIN COMPOUND COMPOSITION” (UNIVERSITY OF LANCASHIRE, priority 2022, published 2025)
# The name of at least one read-out is uncertain.
# Experiment: NMR study: retention of curcumin structure in lipid systems
# Assay type: physicochemical
# Conditions: molten monoolein at 50° C.
structure (smiles),measurement,value
"COc1cc(/C=C/C(=O)CC(=O)/C=C/c2ccc(O)c(OC)c2)ccc1O [curcumin, 1,7-bis(4-hydroxy-3-methoxyphenyl)-1,6-heptadiene-3,5-dione]",retention of curcumin structure after solubilization in lipid systems,retained in its native form
